In the supplement of paper PMC3334620:
The full ranking holds about 33,000 sequences; the median of “E-score (-0.5 to 0.5)” is about -0.0059, and the highest 2% start at about 0.26. Some of the results follow.

What follows are sequences tested against T1, Cin5 (UniProt P40917) (assay: PBM E-score (8-mer binding enrichment) (E-score (-0.5 to 0.5)); higher = stronger / more preferred TF binding). Conditions: protein concentration: 100 nM; construct: GST-full length.
T1 sequence: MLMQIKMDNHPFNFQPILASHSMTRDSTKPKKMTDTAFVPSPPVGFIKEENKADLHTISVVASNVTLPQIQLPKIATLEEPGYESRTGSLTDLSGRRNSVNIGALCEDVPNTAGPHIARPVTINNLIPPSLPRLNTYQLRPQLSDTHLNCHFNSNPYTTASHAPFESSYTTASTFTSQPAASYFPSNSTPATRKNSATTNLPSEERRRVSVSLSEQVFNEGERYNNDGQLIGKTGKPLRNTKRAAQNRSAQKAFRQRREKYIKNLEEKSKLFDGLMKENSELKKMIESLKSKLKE
How it was run: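 Universal all-10-mer Agilent arrays, double-stranded by primer extension on fresh or once-stripped slides, were probed with about 100-200 nM GST-tagged yeast transcription factors made by PURExpress. Fluorescent anti-GST detected bound protein, and masliner normalised the scans. E-scores from the Universal PBM Analysis Suite were given to each ungapped eight-base word pooled with its reverse complement.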

Row | Sequence | PBM E-score
1 | AAACAAAT | 0.249
2 | GCAAAACC | -0.00578
3 | CTGAAACC | 0.0371
4 | AATCACAG | 0.0249
5 | CAATTACG | 0.123
6 | CTACCGAC | -0.0852
7 | ATTTTGAC | 0.128
8 | GCCCAGCC | -0.0782
9 | AAAACGGT | -0.0934
10 | ATTTGCGA | 0.102
11 | CCTCCACG | -0.169
12 | AAGGGGAG | -0.252
13 | CGGGTAGA | -0.0977
14 | CATCACCA | 0.11
15 | CTGCAGTA | -0.23
16 | TCTAAAAA | -0.11
17 | ACCTTTTC | -0.0701
18 | CCCGCCGC | 0.143
19 | TGAAAGAA | 0.105
20 | GTTTGACA | 0.0616
21 | ACGCACGT | -0.233
22 | ACGATAGA | -0.105
23 | CCATGTTC | 0.034
24 | AGATCCGG | -0.0839
25 | GACGCGAA | -0.0353

Single entries from the results shown:
For PBM E-score, AATCACAG has the entry 0.0249
For PBM E-score, GCAAAACC has the entry -0.00578
For PBM E-score, CATCACCA has the entry 0.11
For PBM E-score, AGATCCGG has the entry -0.0839
For PBM E-score, ATTTGCGA has the entry 0.102
For PBM E-score, TCTAAAAA has the entry -0.11

(continued)

Row | Sequence | PBM E-score
26 | AAAAGAAT | 0.257
27 | TACGACAA | 0.157
28 | CGCGTACC | -0.118
29 | ACAGGTAT | 0.177
30 | AGAAGATG | -0.0111
31 | ACCACTCC | -0.0563
32 | CTACAGTC | -0.147
33 | AGCCTTTA | -0.11
34 | GTGCGAAC | -0.146
35 | ATCGCGGA | -0.0167
36 | ACATAACG | 0.231
37 | CCTTTATA | -0.135
38 | CCCCGTGC | -0.0209
39 | ATTGCAGG | 0.0963
40 | TTTACAAA | 0.154
41 | AGATGGTG | -0.103
42 | ATTGAAAT | 0.212
43 | CCGGCGCG | -0.118
44 | ATCATCAG | 0.0722
45 | TATGTAAA | 0.286
46 | AGTATCAA | 0.192
47 | CCGCTTCG | -0.181
48 | CGGTTGGA | 0.0642
49 | AACAAGCA | 0.082
50 | CAACGCGA | 0.134

Row | Sequence | PBM E-score
51 | ACCGCGCA | 0.151
52 | GAACGAGA | 0.0669
53 | GTTGGCCA | -0.135
54 | ACGGACGC | -0.0868
55 | AAACGTCA | -0.0418
56 | CCACTACG | -0.0976
57 | GGTGGGCA | 0.0635
58 | GAGACAGA | 0.12
59 | ATTCGGTC | 0.0323
60 | CCACGACA | -0.134
61 | CAGGGAGG | -0.24
62 | ACGCTGGA | -0.0784
63 | CTGTTATC | 0.126
64 | CGTCAACC | -0.0455
65 | GATATTTA | 0.0135
66 | TAGTTGCA | 0.0553
67 | CGTGCGGC | -0.139
68 | CAGAAGCG | 0.027
69 | GTTTTAAA | 0.112
70 | GCGGGTGA | -0.0997
71 | GTGTCCAA | 0.0492
72 | GTAATTAC | 0.175
73 | ACCGTAGC | -0.159
74 | GCCGCAGC | -0.133
75 | ACCTCATG | -0.229

Row | Sequence | PBM E-score
76 | GGAGAATA | 0.119
77 | CGAAGACC | 0.0315
78 | ATCCCCGG | -0.0984
79 | AGTCGCCA | -0.24
80 | CTCTTAAG | -0.14
81 | CTTTGAGC | -0.225
82 | ATGCCCAT | -0.124
83 | ACTGCACA | -0.0465
84 | CATCGTCG | -0.143
85 | GGGAAGAA | -0.0894
86 | ACACAAGG | 0.0303
87 | ATAGGTCG | -0.0266
88 | ATCCTGCG | -0.149
89 | TCCTTCCA | -0.0598
90 | CATTATTC | 0.255
91 | GCACCCGC | 0.0654
92 | CTCACCGC | -0.0887
93 | AGGGTGAT | 0.0199
94 | CGAATCGC | -0.122
95 | AGACAGCT | -0.00306
96 | AGTTAATA | 0.217
97 | CATGACCG | -0.229
98 | CTTGAGAC | -0.158
99 | CACGAATG | 0.137
100 | ATAGGTAA | 0.195

Row | Sequence | PBM E-score
101 | ACGCCTTC | -0.164
102 | AGACCTCT | -0.165
103 | ACTGCACT | 0.0754
104 | CGCAAAAC | 0.0682
105 | ACCGGCGT | -0.144
106 | TCGCTACA | -0.251
107 | ATGAATGC | 0.167
108 | CTCATAAC | 0.0387
109 | ATGACAAT | 0.111
110 | CGCCTCTC | -0.34
111 | GAATGCTC | -0.106
112 | CAGGCTGA | 0.00323
113 | CCACCAAC | 0.097
114 | TAAAGACA | 0.037
115 | ACATGAAC | 0.0716
116 | ATCACAGG | -0.127
117 | TGCTCCAA | 0.096
118 | CCATAGGC | -0.154
119 | ACGAGCTG | 0.13
120 | CTTCTGAC | -0.166
121 | CAAGCGCA | 0.323
122 | AATTTCTG | 0.0556
123 | GAGCATAA | 0.237
124 | AAATTTAA | 0.17
125 | GTTCTGCA | 0.0289

Row | Sequence | PBM E-score
126 | ATACGTAG | 0.116
127 | CCGTGCTA | -0.179
128 | ACTCAGCC | -0.108
129 | GTATTCAC | 0.12
130 | TCTCGTAA | 0.25
131 | CCCAGTCG | -0.0543
132 | AAACGTAC | 0.0409
133 | ATGCTACG | 0.113
134 | ACATACGC | 0.0419
135 | GGCGTAAC | -0.178
136 | AAATACTT | 0.142
137 | ATGATACA | 0.231
138 | ACTGAATA | 0.165
139 | AACCCGCT | -0.0823
140 | AGAGACCA | -0.0194
141 | AACGACTA | 0.0792
142 | CTTAGGTA | 0.337
143 | TCCGGCAA | 0.042
144 | CGAGGTAA | -0.0352
145 | TGTAAGAA | 0.194
146 | CAATCACG | 0.0456
147 | AATAATGG | 0.226
148 | TAACTAGA | 0.306
149 | GGTAGATA | 0.163
150 | CGGTTATC | -0.0259

Row | Sequence | PBM E-score
151 | ATAAACAG | 0.189
152 | CACACAAC | 0.123
153 | ACTGCCGA | 0.0325
154 | GCTACAGC | 0.00155
155 | GATTGGCC | -0.135
156 | AAACAGTT | 0.0979
157 | GCCCCCCA | -0.466
158 | ACTTTTCT | 0.0353
159 | ATGCTGCA | -0.0271
160 | AAGACTCA | -0.275
161 | AGTTGCAA | 0.0466
162 | ACGCACTC | -0.0778
163 | AAACTTGA | 0.182
164 | AGTAGCAT | -0.0338
165 | AAGAGCCT | -0.193
166 | ATGCTAAG | 0.0394
167 | AACGTGTG | -0.144
168 | CTCCAATC | 0.00472
169 | GCCCAACC | 0.0496
170 | CAGACACG | -0.137
171 | ATATTGTC | 0.23
172 | TCTTAAGA | -0.0736
